Results as given in patent US20170143712A1, “Methods of Treating Cancers, Immune and Autoimmune Diseases, and Inflammatory Diseases Based on BTK Occupancy and BTK Resynthesis Rate” (Acerta Pharma B.V., priority 2014, published 2017).
For at least one compound, name, drawing or mass did not settle the structure.

How the values were obtained:
[1] = system: established type II collagen-induced arthritis (CIA) in DBA/1 mice; assay: 14-day mouse established type II collagen-induced arthritis (CIA), PO QD (Example 10); assay type: in vivo; conditions: 0.2 mg/kg PO QD
Description: Prior to dosing, the candidate anti-inflammatory agents were reconstituted either by vortexing or stirring. The candidate anti-inflammatory agents were administered to the DBA/1 mice daily (QD) by the oral (PO) route.
Immunization with heterologous type II collagen (CII) induces arthritis in mice of the DBA/1 strain, which is genetically susceptible to this disease. To develop an experimental model of autoimmunity more adequate for the study of human rheumatoid arthritis (RA), male DBA/1 mice were injected intradermally (ID) with bovine type II collagen to induce arthritis as reported by Trentham et al (Trentham D E, Townes A S, Kang A H Autoimmunity to type II collagen: an experimental model of arthritis. J. Exper. Med. 1977, 146:857-868) and Bendele A (Bendele A, Animal models of rheumatoid arthritis. J. Musculoskelet. Neuronal Interact. 2001, 1(4):377-85). […]
Efficacy evaluation of the administered anti-inflammatory agents was based on animal body weights, clinical arthritis scores, arthritis scores expressed as area under the curve (AUC), and histopathology on fore paws, hind paws, and knees. Histopathology results were expressed as 4 paws, knees only, or 6 joints (knees included). […]

[2] = system: BCR signaling through BTK; assay: Anti-IgM induced CD86 and CD69 on splenocyte B cells of CIA mice; assay type: in vivo, mouse; conditions: splenocytes 3 hr after last dosing on day 14
Description: (§1) FIG. 45 illustrates changes in a functional measure of BCR signalling through the CD86 marker. Mouse splenocytes were isolated from spleens from mice that were part of the mouse CIA study semi-therapeutic protocol, 3 hr after the last dosing on day 14 of the treatment and cryopreserved. After thawing, inhibition of anti-IgM-induced PD markers CD86 and CD69 on mouse splenocyte B cells were measured. Error bars represent the standard deviation for the 3 sets of splenocytes analyzed.
as §1, with “FIG. 46” for “FIG. 45”, “the CD69” for “the CD86”
Inhibition of the BCR signaling through BTK was evaluated by ex vivo stimulation of splenocytes using IgM and evaluation of CD86 and CD69 as functional responses of BCR stimulation.

## C[C@@H]1C[C@H]2[C@@H]3CCC4=CC(=O)C=C[C@]4(C)[C@@]3(F)[C@@H](O)C[C@]2(C)[C@@]1(O)C(=O)CO [Dex, dexamethasone, reference compound]
[1]
  arthritis: significantly ameliorated arthritis
[2]
  BCR-mediated signaling (anti-IgM induced CD86 and CD69): no effect on BCR signaling was observed
